## Library screen at single concentrations

Protein sequences, listed by entry. Tags and fused reporters are not part of them.
UniProt P9WPC5, whole entry: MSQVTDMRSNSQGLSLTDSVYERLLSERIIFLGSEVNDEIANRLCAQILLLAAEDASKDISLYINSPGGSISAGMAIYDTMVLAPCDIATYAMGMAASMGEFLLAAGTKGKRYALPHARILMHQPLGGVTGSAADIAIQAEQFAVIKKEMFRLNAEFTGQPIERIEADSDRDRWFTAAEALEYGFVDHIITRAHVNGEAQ
UniProt P9WPC3, whole entry partner: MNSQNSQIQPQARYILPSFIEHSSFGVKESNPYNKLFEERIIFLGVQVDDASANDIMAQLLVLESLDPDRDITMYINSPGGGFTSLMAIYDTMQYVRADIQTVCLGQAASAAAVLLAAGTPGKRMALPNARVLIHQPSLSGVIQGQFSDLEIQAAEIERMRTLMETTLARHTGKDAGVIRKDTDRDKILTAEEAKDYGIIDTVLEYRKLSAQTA

Source: ChEMBL document CHEMBL3988442, “University of Dundee, Small-Polar-MMV Screening Library” (2021).

Values are the deposited “Percent Effect”, in %.
The record does not define 0% and 100%; most values in the screen are far below 50% and negative numbers occur (in some assays of this library far below -100).
Compounds were drawn at random from those tested, without regard to their results.

Toxoplasma: 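Assay of Toxoplasma gondii numbers, read through their beta-galactosidase reporter with a colour substrate. Concentration: 10 µM. The record gives no direction; the compounds picked for IC50 retests had high values, so higher reads as fewer parasites. About 67,000 compounds were tested under these conditions; 0.38% (about 260) showed 50% or more at least once.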
ClpP1P2: 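Protease assay of ClpP1P2, read by the AMC dye that it sets free. Target: ClpP1P2, Mycobacterium tuberculosis (UniProt P9WPC5 and UniProt P9WPC3). Tested at 50 µM. Direction is inferred from only a few compounds that gave an IC50; most scored high, so higher reads as stronger inhibition. Most other retested compounds had strongly negative values. Size under these conditions: about 69,000 compounds, about 10 of them at 50% or above in at least one test.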
Leishmania in macrophages: 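Cell assay of Leishmania donovani living inside macrophages; the read-out is not stated. Tested at 30 µM. Direction is inferred from retests: higher values go with stronger inhibition. Size under these conditions: about 69,000 compounds, about 1,000 of them at 50% or above in at least one test.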
T. brucei: 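Whole-parasite assay of Trypanosoma brucei over 72 hours; the read-out is not stated. Concentration: 30 µM. The record gives no direction; compounds that gave an IC50 in retests scored well above the rest, so higher reads as stronger inhibition. Values scatter widely below zero; nearly all retest evidence comes from the higher of the two concentrations used. Of about 64,000 compounds tested this way, about 940 (1.5%) reached 50% or more in at least one test.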

{"compound": "Cc1cnc(N2CCC3(CCCN3C(=O)c3ccco3)CC2)nc1.O=C(O)C(F)(F)F", "Toxoplasma": 8.913, "Leishmania in macrophages": -0.03099, "T. brucei": 6.579}
{"compound": "COC1CCN(C(=O)C2CCCC2)CC(=O)N(C)c2ccccc21", "stereo": "stereo not shown", "Toxoplasma": -9.555, "ClpP1P2": 4.752, "Leishmania in macrophages": -10.23, "T. brucei": -34.54}
{"compound": "CO[C@@H]1CCN(Cc2nccs2)C[C@@H]1Cc1ccccc1.O=C(O)C(F)(F)F", "Toxoplasma": -1.011, "Leishmania in macrophages": 6.615, "T. brucei": 0.2875}
{"compound": "N#Cc1cccc(NC(=O)CCn2nc(-c3cccs3)oc2=O)c1", "Toxoplasma": -14.8, "ClpP1P2": -32.22, "Leishmania in macrophages": 30.28, "T. brucei": 4.103}
{"compound": "O=C(O)C(F)(F)F.O=C(c1cnc2ccccc2c1)N1CCC2(CCN2c2ncccn2)C1", "stereo": "stereo not shown", "Toxoplasma": -15.36, "Leishmania in macrophages": 7.068, "T. brucei": -41.44}
{"compound": "Cc1noc(CN2CCN(C(C)C(=O)NCc3cccs3)CC2)n1", "stereo": "stereo not shown", "Toxoplasma": -1.189, "ClpP1P2": 8.665, "Leishmania in macrophages": -7.757, "T. brucei": -99.26}
{"compound": "CCc1cnc(NCc2nc(COC)no2)nc1", "Toxoplasma": -3.092, "ClpP1P2": 3.441, "Leishmania in macrophages": 20.65, "T. brucei": -36.83}
{"compound": "O=S(=O)(NCc1ccnc(-n2ccnc2)c1)c1cncc(Cl)c1", "Toxoplasma": 0.8032, "ClpP1P2": -5.395, "Leishmania in macrophages": -18.27, "T. brucei": -4.983}
{"compound": "CC(C)c1nccc(CN(C)Cc2cnn(-c3ccccc3)c2)n1", "Toxoplasma": -9.168, "ClpP1P2": -9.566, "Leishmania in macrophages": -18.97, "T. brucei": 6.527}
{"compound": "Cc1ccc(S(=O)(=O)N2CC[C@@H]3C[C@H](NC(=O)c4ccncc4)[C@@H]32)cc1", "ClpP1P2": -5.113}
{"compound": "CC(C)N1CCc2onc(Cn3cccn3)c2C1", "Toxoplasma": -0.9798, "ClpP1P2": 1.68, "Leishmania in macrophages": 17.92, "T. brucei": -7.573}
{"compound": "c1ccc(Cn2cc3c(n2)C(CNCC2CCOCC2)OCC3)nc1", "stereo": "stereo not shown", "ClpP1P2": -1.73}
{"compound": "CC(C)SCC(=O)N1Cc2cnc(-c3ccccc3)nc2C1", "Toxoplasma": -2.996, "ClpP1P2": 1.613, "Leishmania in macrophages": 7.31, "T. brucei": 1.74}
{"compound": "CCc1csc(CNc2nc3c(s2)c(C)nn3C)n1", "Toxoplasma": -4.155, "ClpP1P2": 4.3, "Leishmania in macrophages": 28.02, "T. brucei": -333.3}
{"compound": "Cc1nc(CN2CCC(O)(c3ccccc3F)CC2)c2ccccn12", "ClpP1P2": -198.3}
{"compound": "Cn1c(CN2CCCc3cc(F)cc(F)c32)cc(=O)n(C)c1=O", "Toxoplasma": 33.85, "ClpP1P2": 6.275, "Leishmania in macrophages": -8.633, "T. brucei": -43.27}
{"compound": "CC(NCc1ccc(F)cc1)c1ccc2[nH]c(=O)[nH]c2c1", "stereo": "stereo not shown", "Toxoplasma": -24.55, "ClpP1P2": 7.189, "Leishmania in macrophages": 32.02, "T. brucei": -9.037}
{"compound": "CCc1ccc(C(COC)NC(=O)c2ccc(F)c(NC(C)=O)c2)o1", "stereo": "stereo not shown", "Toxoplasma": 7.847, "ClpP1P2": -17.92, "Leishmania in macrophages": -50.64}
{"compound": "OCc1csc(N2CCN(Cc3cccc(F)c3)CC2)n1", "Toxoplasma": 5.876, "ClpP1P2": 2.484, "Leishmania in macrophages": -20.15, "T. brucei": -44.42}
{"compound": "O=C1NC(=O)c2c3c(nc(O)c21)CCCC3", "Toxoplasma": -5.122, "ClpP1P2": 2.497, "Leishmania in macrophages": 19.69, "T. brucei": -14.21}
{"compound": "O=C(O)C(F)(F)F.O=C(O)C(F)(F)F.[H][C@@]12CN(Cc3cccc(F)c3)C[C@]1([H])CN(c1ncccn1)C2", "Toxoplasma": -0.6252, "Leishmania in macrophages": 8.696, "T. brucei": -60.11}
{"compound": "[H][C@@]12CN(S(=O)(=O)C(C)C)C[C@]1([H])N(CCc1cccc(Cl)c1)C(=O)O2", "Toxoplasma": 3.475, "Leishmania in macrophages": 11.75, "T. brucei": -6.609}
{"compound": "Cc1cc(CN2CCN(CC(O)c3ccc4c(c3)OCO4)CC2)no1", "stereo": "stereo not shown", "Toxoplasma": 18.82, "ClpP1P2": -4.242, "Leishmania in macrophages": 7.425}
{"compound": "COc1ccc(C(C)Nc2ncc(C(N)=O)cc2Cl)cc1F", "stereo": "stereo not shown", "Toxoplasma": -3.187, "ClpP1P2": 9.143, "Leishmania in macrophages": 2.682, "T. brucei": -16.69}
{"compound": "CC(C)(C)c1n[nH]c(C2CN(C(=O)CCc3cccs3)CCO2)n1", "stereo": "stereo not shown", "Toxoplasma": -5.574, "ClpP1P2": -29.72, "Leishmania in macrophages": 9.557}
{"compound": "O=S(=O)(NCC1CCN(CCN2CCOCC2)C1)c1ccccc1F", "stereo": "stereo not shown", "Toxoplasma": 1.791, "ClpP1P2": 15.57, "Leishmania in macrophages": -20.2, "T. brucei": -18.41}
{"compound": "CC(=O)N[C@@H](CC(C)C)C(=O)N1CCC(n2cc(CO)nn2)CC1", "Toxoplasma": 3.846, "ClpP1P2": -4.782, "Leishmania in macrophages": 14.95, "T. brucei": -26.41}
{"compound": "Cc1cnc(N2CCC3(CCCN(c4ccc(C)nn4)C3)C2)nc1", "stereo": "stereo not shown", "Toxoplasma": -2.349, "ClpP1P2": 6.531, "Leishmania in macrophages": -9.483, "T. brucei": -12.95}
{"compound": "CC(C(=O)N1CCCCC1)N1CCN(c2nccs2)CC1", "stereo": "stereo not shown", "Toxoplasma": 24.33, "ClpP1P2": -4.197, "Leishmania in macrophages": -8.064, "T. brucei": -18.13}
{"compound": "CCCn1cc(CNCC(c2ccc(C)s2)N2CCOCC2)cn1", "stereo": "stereo not shown", "Toxoplasma": -1.125, "ClpP1P2": -8.741, "Leishmania in macrophages": -23.95, "T. brucei": -71.44}
{"compound": "CC(C)(C)NC(=O)[C@@H]1CNC[C@]12Cc1ccccc1C(=O)N2", "Toxoplasma": 0.8606, "ClpP1P2": -11.87, "Leishmania in macrophages": 9.793, "T. brucei": -4.954}
{"compound": "CNC(=O)c1cnc2n1CCN(Cc1cccnc1)C2", "ClpP1P2": -3.804}
{"compound": "Cc1nn(C)c(N(C)C)c1CNCC(O)c1ccccc1", "stereo": "stereo not shown", "Toxoplasma": -0.7663, "ClpP1P2": -12.63, "Leishmania in macrophages": 6.444, "T. brucei": -88.4}
{"compound": "CC(C)c1nnc2n1CCN(C(=O)c1ccnc(-n3ccnc3)c1)C2", "Toxoplasma": -4.488, "ClpP1P2": -12.54, "Leishmania in macrophages": -22.72, "T. brucei": -9.067}
{"compound": "Cc1ccc(NC(=O)N(C)Cc2cnn(C)c2)c(C)c1", "Toxoplasma": 27.89, "ClpP1P2": -33.18, "Leishmania in macrophages": 27.37, "T. brucei": -27.47}
{"compound": "Cc1cccc(CN2C[C@@H]3COC[C@]3(CNC(=O)C3CCC3)C2)c1", "ClpP1P2": -4.051}
{"compound": "COc1c2ccc(C(=O)NCCCn3ncccc3=O)cc2nn1C", "Toxoplasma": 22.91, "ClpP1P2": -3.72, "Leishmania in macrophages": 7.915, "T. brucei": -25.02}
{"compound": "Cc1ccc(-c2ccnc(N3CCC4(CC3)CNC(=O)O4)n2)c(C)n1", "Toxoplasma": -1.959, "ClpP1P2": 1.681, "Leishmania in macrophages": 10.16, "T. brucei": -11.26}